Measurements as given in paper PMC4548235.
These are yes or no findings as the source states them, for the method shown. Binding seen in cells or lysates may run through a third protein. Binding can be weak; no strength is given. Tags and fused reporters may be left off the sequences shown.

Target: T1, 6xHN tagged USP48 (human) (UniProt Q86UV5)
T1 sequence: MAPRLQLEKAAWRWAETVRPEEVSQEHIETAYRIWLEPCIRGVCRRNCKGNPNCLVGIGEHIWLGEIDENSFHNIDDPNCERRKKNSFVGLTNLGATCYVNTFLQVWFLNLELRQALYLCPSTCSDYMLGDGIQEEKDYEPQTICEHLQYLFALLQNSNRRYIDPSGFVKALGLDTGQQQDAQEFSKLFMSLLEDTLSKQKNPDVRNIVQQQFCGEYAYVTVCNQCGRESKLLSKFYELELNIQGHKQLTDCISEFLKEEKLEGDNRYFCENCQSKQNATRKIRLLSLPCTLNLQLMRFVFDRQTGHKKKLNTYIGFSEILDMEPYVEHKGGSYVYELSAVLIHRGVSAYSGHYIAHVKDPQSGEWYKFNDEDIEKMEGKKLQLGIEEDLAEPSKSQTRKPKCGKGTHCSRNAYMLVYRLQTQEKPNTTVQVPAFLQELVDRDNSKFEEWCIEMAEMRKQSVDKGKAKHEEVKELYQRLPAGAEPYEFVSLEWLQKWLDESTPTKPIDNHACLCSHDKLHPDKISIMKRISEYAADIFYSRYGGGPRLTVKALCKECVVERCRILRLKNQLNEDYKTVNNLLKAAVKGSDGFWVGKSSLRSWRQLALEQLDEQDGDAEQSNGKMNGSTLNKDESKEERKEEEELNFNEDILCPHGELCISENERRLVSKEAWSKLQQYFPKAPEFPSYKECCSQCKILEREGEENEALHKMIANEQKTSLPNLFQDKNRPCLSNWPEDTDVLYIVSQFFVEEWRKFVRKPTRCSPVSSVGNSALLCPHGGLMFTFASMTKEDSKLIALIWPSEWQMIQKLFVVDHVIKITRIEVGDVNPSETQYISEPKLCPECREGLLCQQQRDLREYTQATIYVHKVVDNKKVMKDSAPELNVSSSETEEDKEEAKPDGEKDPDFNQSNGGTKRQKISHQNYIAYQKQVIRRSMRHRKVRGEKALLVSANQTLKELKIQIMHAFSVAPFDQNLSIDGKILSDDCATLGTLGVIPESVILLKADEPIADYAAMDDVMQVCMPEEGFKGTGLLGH
Experiment: pull-down; called co-immunoprecipitation by the paper: recombinant 6xHN-tagged host protein incubated overnight at 4°C with cleared M. smegmatis lysate expressing the Flag-tagged M. avium protein, captured on His-columns, washed, eluted; western blot with 6xHN and Flag antibodies; only the target purified

With Flag-tagged MAV_4563 the binding was “binds”.
